Paper PMC3219604

Tests used:
Assay in all cases: EMSA
[1] = target: T1, IS2 OrfAB, refolded native (UniProt P51026); settings: 6.02 ug refolded protein, 2 nM DNA, bound very poorly; 20 mM Tris-Cl pH 8.0, 1 mM EDTA, 5 ug/mL calf thymus DNA, 10 nM DNA, 0.11-0.13 uM protein, 30 min at …; gels at 4 C; recombinant protein; label: 5'-32P upper strand
T1 sequence (looked up, limits assumed): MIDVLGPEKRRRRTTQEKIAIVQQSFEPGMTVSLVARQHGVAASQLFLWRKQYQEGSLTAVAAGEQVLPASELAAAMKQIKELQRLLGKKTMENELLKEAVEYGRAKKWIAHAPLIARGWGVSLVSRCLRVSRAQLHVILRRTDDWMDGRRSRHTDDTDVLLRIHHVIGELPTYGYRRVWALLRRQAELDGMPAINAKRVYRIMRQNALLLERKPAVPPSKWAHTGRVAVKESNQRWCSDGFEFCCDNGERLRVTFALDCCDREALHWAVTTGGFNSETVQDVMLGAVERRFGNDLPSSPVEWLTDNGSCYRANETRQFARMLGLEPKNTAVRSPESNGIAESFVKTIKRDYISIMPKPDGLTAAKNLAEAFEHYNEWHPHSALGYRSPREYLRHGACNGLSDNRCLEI

[2] = target: T2, IS2 OrfAB-GFP, IMPACT purified (pTW2orfAB::GFP) (UniProt P51026); settings: 0.46 uM protein, 2 nM DNA, bound poorly; 20 mM Tris-Cl pH 8.0, 1 mM EDTA, 5 ug/mL calf thymus DNA, 10 nM DNA, 0.11-0.13 uM protein, 30 min at 20 C; gels at 4 C; recombinant protein; protein details: C-terminal GFPuv, chitin/intein purification; label: 5'-32P upper strand
T2 sequence (looked up, limits assumed): T1 sequence (looked up, limits assumed)

[3] = target: T3, IS2 OrfAB-GFP, crude extract (pTW2orfAB::GFP) (UniProt P51026); settings: ~80 nM protein, 2 nM DNA; 20 mM Tris-Cl pH 8.0, 1 mM EDTA, 5 ug/mL calf thymus DNA, 10 nM DNA, 0.11-0.13 uM protein, 30 min at 20 C; gels at 4 C; protein in a lysate after overexpression; protein details: C-terminal GFPuv, pTWIN2 intein/chitin tag; label: 5'-32P upper strand
T3 sequence (looked up, limits assumed): T1 sequence (looked up, limits assumed)

[4] = target: T4, OrfAB-GFP GMF96 W237R W252R (UniProt P51026); settings: 12% native PAGE; 20 mM Tris-Cl pH 8.0, 1 mM EDTA, 5 ug/mL calf thymus DNA, 10 nM DNA, 0.11-0.13 uM protein, 30 min at 20 C; gels at 4 C; recombinant protein; protein details: 6xHis, C-terminal GFPuv; label: 5'-32P upper strand
T4 sequence (looked up, limits assumed): T1 sequence (looked up, limits assumed) with W222R, W237R

GCTGACTTGACGGGACGGGGATCCTTAAGTGATAACAGATGTCTGGAAATATAGGGGCAAATCCAATCGACCTGCAGGCATATAAGC (double strand) [IRR 87-mer]
binding result [1]: binds more weakly | binding result [2]: binds more weakly | binding result [3]: binds | binding signal (binding score (0-5)) [4]: 5

Changes are numbered by the printed parent chain. The exact form of at least one protein or probe is not confirmed. For some of these results: A weaker result is weaker than the reference pair of the same experiment. Tags and fusion partners may be left off the protein sequences shown. For some of these results: Results from cells or extracts need not show a direct contact.
